Test results from paper PMC6519732 (Journal of medicinal chemistry, 2019).

How the values were obtained:
Assay in all cases: cells
MDA-MB-231 cells = settings: Homo sapiens, MDA-MB-231, 72 h, read-out: antiproliferative IC50
T24 cells = settings: Homo sapiens, T-24, 72 h, read-out: antiproliferative IC50
HUH7 cells = settings: Homo sapiens, Huh-7, 72 h, read-out: antiproliferative IC50

IC50 (MDA-MB-231 cells): 2800 nM
IC50 (T24 cells): 2400 nM
IC50 (HUH7 cells): 1200 nM
SMILES: O=C(CCCCCCC(=O)Nc1ccccc1)NO [SAHA, suberoylanilide hydroxamic acid]
